Source: patent US10731216B2, “Methods and compositions for biomarkers of depression and pharmacoresponse” (priority 2014, dated 2020)
At least one compound was matched to its structure with a doubt left.

What was measured:
Per2 promoter = test: Luciferase reporter assay in Per2::Luc primary mouse fibroblasts after DEX synchronisation; assay type: cell-based; details: 1 μM DEX single pulse
Protocol: The generation of knock-in mice expressing firefly luciferase under the control of Per2 promoter (Per2::Luc) has been described previously (Yoo et al. 2004).
Tissue samples (about 0.25 cm^2) were harvested from the ear of adult (6 mo) control and Dex-exposed mice under terminal anesthesia. The tissue was rinsed in Hank's Balanced Salt Solution (HBSS) (Life Technologies Europe BV, Stockholm, Sweden), then minced with sterile razor blade into Collagenase (Type XI-S) (Sigma-Aldrich, Sweden) (30 min at 37° C.). After digestion, 3 ml of DMEM Medium (Life Technologies) supplemented with 10% Fetal Bovine Serum and 1% Penicillin/Streptomycin (Life Technologies) was added to a 6 cm plate and the samples were incubated at 37° C. for at least 6 days. After passaging (0.05% Trypsin-EDTA; Invitrogen), the cells were plated in 12 multi-well plates in MEF medium (DMEM Medium+10% FBS+1% pen/strep) at a density of at least 50 k/cm^2. […] The number of photons emitted by each culture dish was counted over 1 minute every 10 min (time resolution: 6 data points/h). The time series were further analyzed by means of cosinor analysis as described in Example 4.

BMAL1 promoter = test: Bmal1:Luc lentiviral reporter assay in primary human fibroblasts, two DEX pulses; assay type: cell-based

SMILES: C[C@@H]1C[C@H]2[C@@H]3CCC4=CC(=O)C=C[C@]4(C)[C@@]3(F)[C@@H](O)C[C@]2(C)[C@@]1(O)C(=O)CO [DEX, dexamethasone]
- bioluminescence oscillations after initial DEX synchronisation (Per2 promoter): self-sustained
- BMAL1 promoter activation after first pulse of DEX (BMAL1 promoter; 1 μM DEX): self-sustained oscillations
- bioluminescence signal intensity after second pulse of DEX (BMAL1 promoter; 1 μM DEX 5 days after first pulse, fibroblasts of healthy control): dramatic drop
- bioluminescence signal after second pulse of DEX (BMAL1 promoter; 1 μM DEX 5 days after first pulse, fibroblasts of subject with bipolar disorder): only a minor negative deflection
